# Results are given in words; binding and its absence hold for the method and conditions named. Binding seen in cells or lysates may run through a third protein. These calls come from enrichment with a bait or labelling near it, and not all partners need be listed. Sequences can lack the tags named with a protein.
# T1: carboxypeptidase N1 (CPN1), overexpressed from pCMV3-SP-Flag-CPN1 (UniProt P15169)
# T1 sequence: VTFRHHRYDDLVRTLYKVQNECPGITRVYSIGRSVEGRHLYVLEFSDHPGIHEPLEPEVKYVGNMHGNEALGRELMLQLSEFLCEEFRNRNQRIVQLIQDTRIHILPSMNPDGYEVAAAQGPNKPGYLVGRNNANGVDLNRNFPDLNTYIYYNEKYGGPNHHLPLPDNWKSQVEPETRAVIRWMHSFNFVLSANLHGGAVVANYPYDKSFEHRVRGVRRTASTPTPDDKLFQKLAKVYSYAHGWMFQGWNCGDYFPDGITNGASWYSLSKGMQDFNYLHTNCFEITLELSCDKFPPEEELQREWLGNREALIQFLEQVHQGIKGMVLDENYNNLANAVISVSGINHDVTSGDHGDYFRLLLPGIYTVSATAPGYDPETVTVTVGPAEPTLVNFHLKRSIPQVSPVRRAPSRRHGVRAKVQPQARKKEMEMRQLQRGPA
# B1: retinoic acid-induced protein 14 (RAI14) (protein, UniProt Q9P0K7 1-980)
# chain: MKSLKAKFRKSDTNEWNKNDDRLLQAVENGDAEKVASLLGKKGASATKHDSEGKTAFHLAAAKGHVECLRVMITHGVDVTAQDTTGHSALHLAAKNSHHECIRKLLQSKCPAESVDSSGKTALHYAAAQGCLQAVQILCEHKSPINLKDLDGNIPLLLAVQNGHSEICHFLLDHGADVNSRNKSGRTALMLACEIGSSNAVEALIKKGADLNLVDSLGYNALHYSKLSENAGIQSLLLSKISQDADLKTPTKPKQHDQVSKISSERSGTPKKRKAPPPPISPTQLSDVSSPRSITSTPLSGKESVFFAEPPFKAEISSIRENKDRLSDSTTGADSLLDISSEADQQDLLSLLQAKVASLTLHNKELQDKLQAKSPKEAEADLSFDSYHSTQTDLGPSLGKPGETSPPDSKSSPSVLIHSLGKSTTDNDVRIQQLQEILQDLQKRLESSEAERKQLQVELQSRRAELVCLNNTEISENSSDLSQKLKETQSKYEEAMKEVLSVQKQMKLGLVSPESMDNYSHFHELRVTEEEINVLKQDLQNALEESERNKEKVRELEEKLVEREKGTVIKPPVEEYEEMKSSYCSVIENMNKEKAFLFEKYQEAQEEIMKLKDTLKSQMTQEASDEAEDMKEAMNRMIDELNKQVSELSQLYKEAQAELEDYRKRKSLEDVTAEYIHKAEHEKLMQLTNVSRAKAEDALSEMKSQYSKVLNELTQLKQLVDAQKENSVSITEHLQVITTLRTAAKEMEEKISNLKEHLASKEVEVAKLEKQLLEEKAAMTDAMVPRSSYEKLQSSLESEVSVLASKLKESVKEKEKVHSEVVQIRSEVSQVKREKENIQTLLKSKEQEVNELLQKFQQAQEELAEMKRYAESSSKLEEDKDKKINEMSKEVTKLKEALNSLSQLSYSTSSSKRQSQQLEALQQQVKQLQNQLAECKKQHQEVISVYRMHLLYAVQGQMDEDVQKVLKQILTMCKNQSQKK
# Biological target: T1, carboxypeptidase N1 (CPN1), overexpressed from pCMV3-SP-Flag-CPN1
# Assay: affinity purification with mass spectrometry; 293T cells transfected with the CPN1 overexpression plasmid or the empty plasmid; Co-IP Kit (Thermo Fisher Scientific); protein complexes eluted with CPN1 antibody; IgG group as negative control; part of the eluate sent for mass spectrometry
binder,measurement,value
B1,binding,binds

# From publication PMC9010950
